Results are given in words; binding and its absence hold for the method and conditions named. Binding seen in cells or lysates may run through a third protein. Some results given as binding are weak or reduced against the parent protein; the word gives no strength. Each block holds one substance with its values, some of them ahead of it.
Key:
[1] = molecular target: RELA proto-oncogene (65 kDa subunit) (human (endogenous in hSAECs)) (UniProt Q04206); assay: co-IP; lysates of mock- or RSV-infected hSAECs (24 h, MOI = 1); 10 mM HEPES pH 7.4, 50 mM NaCl, 1% Triton X-100, 10% glycerol; IP with anti-OGG1 or anti-RELA Ab overnight at 4 °C, protein G Dynabeads; immunoblot with anti-RELA or anti-OGG1
[2] = molecular target: 8-oxoguanine DNA glycosylase1 (human (endogenous in hSAECs)) (UniProt O15527); assay: as above
[3] = molecular target: 8-oxoguanine DNA glycosylase1 (human (endogenous in hSAECs)) (UniProt O15527); assay: proximity ligation; Duolink PLA with anti-RelA and anti-OGG1 antibodies in control or RSV-infected hSAECs; red foci by fluorescence microscopy
FLAG-tagged OGG1 = FLAG-tagged OGG1 (UniProt O15527); assay: co-IP; lysates of FLAG-OGG1-expressing A549 cells over a time course of RSV infection; capture on anti-FLAG M2 magnetic beads; immunoblot with anti-phospho-Ser536 RELA

By UniProt entry, the sequences of proteins in these tests, tags left out.
UniProt Q04206: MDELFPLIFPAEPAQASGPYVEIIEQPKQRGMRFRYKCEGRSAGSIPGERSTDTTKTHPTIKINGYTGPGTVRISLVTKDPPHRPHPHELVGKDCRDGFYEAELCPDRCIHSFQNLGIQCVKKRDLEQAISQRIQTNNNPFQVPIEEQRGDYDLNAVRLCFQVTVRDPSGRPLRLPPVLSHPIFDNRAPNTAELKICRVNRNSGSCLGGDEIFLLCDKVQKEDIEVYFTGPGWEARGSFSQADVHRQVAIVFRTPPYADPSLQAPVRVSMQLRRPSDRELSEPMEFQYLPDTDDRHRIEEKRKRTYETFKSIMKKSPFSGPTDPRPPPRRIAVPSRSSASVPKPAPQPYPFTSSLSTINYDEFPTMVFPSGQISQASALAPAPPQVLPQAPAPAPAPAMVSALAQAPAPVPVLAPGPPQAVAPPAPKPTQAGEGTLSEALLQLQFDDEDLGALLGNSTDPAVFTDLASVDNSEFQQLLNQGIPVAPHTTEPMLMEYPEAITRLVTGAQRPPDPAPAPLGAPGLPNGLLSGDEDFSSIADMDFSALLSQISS
UniProt O15527: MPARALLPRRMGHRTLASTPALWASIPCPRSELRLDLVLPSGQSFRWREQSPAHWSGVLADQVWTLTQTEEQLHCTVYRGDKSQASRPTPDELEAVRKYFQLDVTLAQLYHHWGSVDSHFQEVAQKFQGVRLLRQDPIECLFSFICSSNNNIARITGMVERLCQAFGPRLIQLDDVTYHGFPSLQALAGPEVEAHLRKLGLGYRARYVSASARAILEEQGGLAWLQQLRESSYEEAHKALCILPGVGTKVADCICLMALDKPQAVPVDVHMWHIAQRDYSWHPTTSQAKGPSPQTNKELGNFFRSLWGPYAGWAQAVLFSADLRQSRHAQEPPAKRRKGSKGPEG

- binding [1]: binds
Substance: 8-oxoguanine DNA glycosylase1 (from UniProt O15527 1-345) (enzyme)

- binding [2]: binds
- binding [3]: binds
Substance: RELA proto-oncogene (65 kDa subunit) (from UniProt Q04206 1-551)

- binding (FLAG-tagged OGG1): binds
Substance: Ser 536-phosphorylated RELA (from UniProt Q04206 1-551)

From publication PMC9319012
